The text below walks through data of paper PMC11455950, “Effects of SZV-2649, a new multiple ion channel inhibitor mexiletine analogue” (Scientific Reports, 2024).

The subject of this experiment is anesthetized dogs. As to the kind of experiment: Atrial fibrillation induced by carbachol infusion and burst stimulation in anesthetized dogs. Also on record: key to AF converted to SR?: N, response not observed; Y, response observed. It is filed as in vivo, dog. The note with it: i.v. 0.3 mg/kg, individual dogs.

“And” between values parts separate entries of the source, which are not always exact repeats. Equal values may be shown once.

Regarding `CCCNCC(O)COc1ccccc1C(=O)CCc1ccccc1` (centres unmarked) [propafenone, reference compound], the “AF converted to SR?” value is “Y”. Further, the “AF converted to SR? (time printed in cell)” value (0.3 mg/kg) is 291 s and 89 s and 589 s and 15 s and 145 s.
